Publication PMC10146638 (Viruses, 2023)
Results are given in words; binding and its absence hold for the method and conditions named.

Target: OVA (UniProt P01012)
Assay: SPR; both purified

Binder: WWHEKE [peptide number 15 (P15; WWHEKE)]
- binding: no binding
